From the supplement of paper PMC4604168 (melanoma cell lines) come the findings set out here.

This is one part of the list. Many values rest on one well or one pass, so single values are uncertain.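 Cells were imaged in 1,536-well plates, and nuclei stained with an antibody against cleaved PARP were counted against all DNA-stained nuclei to give the apoptosis fraction. Screening doses were chosen to leave most cells alive, and resting and induced cleaved-PARP levels differ strongly between cell lines.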

Experiment in all cases: cleaved PARP positive nuclei fraction relative to DMSO control; melanoma cells; higher = more apoptosis
What all share (settings): library dose: low library concentration; 72 h

In experiment [1] the test system is 501Mel.
Experiment [2] concerns A101D.
In experiment [3] the test system is A2058.
In experiment [4] the test system is A375.
Experiment [5] concerns C32.
The subject of experiment [6] is CBRC008 (line from a melanoma biopsy).
In experiment [7] the test system is CBRC013 (line from a melanoma biopsy).
Experiment [8] relates to CBRC014 (line from a melanoma biopsy).
The subject of experiment [9] is CBRC016 (line from a melanoma biopsy).
Experiment [10] relates to CBRC017 (line from a melanoma biopsy).

On to `C[C@]12O[C@H](C[C@]1(O)CO)n1c3ccccc3c3c4c(c5c6ccccc6n2c5c31)CNC4=O` [Lestaurtinib] + Cn1cncc1[C@@](N)(c1ccc(Cl)cc1)c1ccc2c(c1)c(-c1cccc(Cl)c1)cc(=O)n2C [tipifarnib] (first compound 0.004 µM, partner dose 0.01 µM), for which the “cleaved PARP positive nuclei fraction” value in experiment [1] came out at 89.4%; in experiment [2], 200%; in experiment [3] it was 138%; in [4], 37.5%; in experiment [5] it was 44.5%; in [6], 312%. Besides, the “cleaved PARP positive nuclei fraction” value in experiment [7] was determined as 120%; in experiment [8], 88.2%; in experiment [9], 127%; in experiment [10], 95.1%.

As for `C[As](C)SC[C@H](NC(=O)CC[C@H](N)C(=O)O)C(=O)NCC(=O)O` [Darinaparsin] + Cn1cncc1[C@@](N)(c1ccc(Cl)cc1)c1ccc2c(c1)c(-c1cccc(Cl)c1)cc(=O)n2C [tipifarnib] (first compound 0.4 µM, partner dose 0.01 µM), the “cleaved PARP positive nuclei fraction” value in experiment [1] came to 78%; in experiment [2] it was 85.3%; in experiment [3] it was 90.1%; in experiment [4], 163%; in experiment [5] it was 75.2%; in [6], 128%. Moreover, the “cleaved PARP positive nuclei fraction” value in [7] was 114%; in experiment [8], 94.8%; in experiment [9] it was 49.9%; in experiment [10], 94.5%.

As to `Cn1cc(C2=C(c3cn(C4CCN(Cc5ccccn5)CC4)c4ccccc34)C(=O)NC2=O)c2ccccc21` [Enzastaurin] + C=CCn1c(=O)c2cnc(Nc3ccc(N4CCN(C)CC4)cc3)nc2n1-c1cccc(C(C)(C)O)n1 [MK1775] (first compound 0.8 µM, partner dose 0.02 µM), the “cleaved PARP positive nuclei fraction” value in experiment [1] was found to be 135%; in experiment [2], 207%; in experiment [3], 194%; in experiment [4] it was 357%; in experiment [5], 119%; in [6], 194%. The “cleaved PARP positive nuclei fraction” value in [7] is 76.9%; in experiment [8], 176%; in [9], 144%; in experiment [10], 148%.

On to `C[As](C)SC[C@H](NC(=O)CC[C@H](N)C(=O)O)C(=O)NCC(=O)O` [Darinaparsin] + NC(=O)Nc1cc(-c2cccc(F)c2)sc1C(=O)N[C@H]1CCCNC1 [AZD7762] (first compound 0.4 µM, partner dose 0.02 µM), for which the “cleaved PARP positive nuclei fraction” value came to 85.1% in experiment [1]; 219% in experiment [2]; 72.2% in experiment [3]; 275% in [4]; 81.8% in [5]; 384% in [6]. Besides, the “cleaved PARP positive nuclei fraction” value in experiment [7] was 89.3%; in [8], 80.9%; in experiment [9], 57.7%; in [10], 88.2%.

On to `C[As](C)SC[C@H](NC(=O)CC[C@H](N)C(=O)O)C(=O)NCC(=O)O` [Darinaparsin] + NCC(=O)Nc1ccc(-n2nc(C(F)(F)F)cc2-c2ccc3c(ccc4ccccc43)c2)cc1 [OSU03012] (first compound 0.4 µM, partner dose 1 µM), for which the “cleaved PARP positive nuclei fraction” value in experiment [1] was determined as 355%; in [2] it was 78.6%; in experiment [3] it was 57.8%; in [4] it was 5400%; in experiment [5], 43.2%; in experiment [6] it was 70.5%. In addition, the “cleaved PARP positive nuclei fraction” value worked out at 129% in experiment [7], 95.8% in experiment [8], 82.5% in experiment [9] and 87.7% in experiment [10].

Consider `C[As](C)SC[C@H](NC(=O)CC[C@H](N)C(=O)O)C(=O)NCC(=O)O` [Darinaparsin] + O=C(CCCCCCC(=O)Nc1ccccc1)NO [vorinostat] (first compound 0.4 µM, partner dose 0.08 µM), for which the “cleaved PARP positive nuclei fraction” value was 93% in [1]; 74.4% in [2]; 42.1% in [3]; 82.6% in experiment [4]; 75.3% in experiment [5]; 60.5% in [6]. Besides, the “cleaved PARP positive nuclei fraction” value in experiment [7] worked out at 103%; in [8], 86%; in experiment [9] it was 31.2%; in experiment [10], 135%.

Regarding `Cn1cc(C2=C(c3cn(C4CCN(Cc5ccccn5)CC4)c4ccccc34)C(=O)NC2=O)c2ccccc21` [Enzastaurin] + OCCn1cc(-c2cnc3nnn(Cc4ccc5ncccc5c4)c3n2)cn1 [PF04217903] (first compound 0.8 µM, partner dose 1 µM), the “cleaved PARP positive nuclei fraction” value came to 186% in experiment [1]; 78.1% in experiment [2]; 102% in experiment [3]; 149% in experiment [4]; 99.5% in experiment [5]; 239% in experiment [6]. The “cleaved PARP positive nuclei fraction” value in experiment [7] is 50.9%; in experiment [8] it was 87.8%; in [9], 80.6%; in experiment [10], 103%.

With `N.N.[Cl][Pt][Cl]` [cisplatin] + CO[C@@H]1[C@H](N(C)C(=O)c2ccccc2)C[C@H]2O[C@]1(C)n1c3ccccc3c3c4c(c5c6ccccc6n2c5c31)C(=O)NC4 [Midostaurin] (first compound 1.6 µM, partner dose 0.08 µM), the “cleaved PARP positive nuclei fraction” value was found to be 168% in experiment [1]; 91.2% in experiment [2]; 148% in [3]; 117% in [4]; 109% in experiment [5]; 252% in [6]. The “cleaved PARP positive nuclei fraction” value came out at 67.3% in experiment [7], 210% in experiment [8], 356% in [9] and 134% in [10].

With `Cn1cc(C2=C(c3cn(C4CCN(Cc5ccccn5)CC4)c4ccccc34)C(=O)NC2=O)c2ccccc21` [Enzastaurin] + NCC(=O)Nc1ccc(-n2nc(C(F)(F)F)cc2-c2ccc3c(ccc4ccccc43)c2)cc1 [OSU03012] (first compound 0.8 µM, partner dose 1 µM), the “cleaved PARP positive nuclei fraction” value in experiment [1] stood at 183%; in [2] it was 46.6%; in experiment [3], 133%; in experiment [4], 2530%; in experiment [5], 153%; in [6], 85.4%. The “cleaved PARP positive nuclei fraction” value in experiment [7] is 84.8%; in [8] it was 89.6%; in [9] it was 131%; in experiment [10], 92.1%.

Regarding `C[C@]12O[C@H](C[C@]1(O)CO)n1c3ccccc3c3c4c(c5c6ccccc6n2c5c31)CNC4=O` [Lestaurtinib] + O=C(CCCCCCC(=O)Nc1ccccc1)NO [vorinostat] (first compound 0.004 µM, partner dose 0.08 µM), the “cleaved PARP positive nuclei fraction” value in experiment [1] stood at 107%; in experiment [2], 219%; in [3] it was 78.3%; in [4], 87.5%; in experiment [5] it was 71.5%; in [6], 123%. Further, the “cleaved PARP positive nuclei fraction” value in experiment [7] stood at 93.2%; in experiment [8] it was 82.4%; in experiment [9], 27.2%; in [10] it was 102%.
